Measurements taken from PubChem BioAssay AID504467 (National Center for Advancing Translational Sciences (NCATS), 2011).
In all, about 330,000 compounds went through this assay and about 7,700 (2.3%) were called active. Inconclusive results, whose numbers are uncertain, are shown with a selection of clear calls. Calls come from the whole dose curve; as a rule, active = well fitted inhibition curve with a large enough effect; inconclusive = small, poorly fitted or top-dose-only effect, or effect the other way; inactive = flat fitted curve, though single readings scatter. Potencies of inconclusive entries are doubtful fits and often do not repeat.

Assay: qHTS screen for small molecules that inhibit ELG1-dependent DNA repair in human embryonic kidney (HEK293T) cells expressing luciferase-tagged ELG1; note: nearly all actives have a fitted effect of over 55% in size
Details: HEK293T ELG1-luciferase reporter, luminescence, 16 h, DNA damage induced by 5-fluorouridine; activity change, negative = inhibition: at 46.1 µM (top of the series)
Procedure, shortened: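 Cells (2,000 per well) received 5-fluorouridine plus test compound or DMSO and were incubated 16 hr at 37 °C, 5% CO2. Luciferase activity was read by luminescence 30 min after ONE-Glo addition; signal suppression marked inhibition of damage-induced ELG1 function.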
% is set by controls: 0 for no effect and ±100 for the full control effect; potency is the fitted concentration of half-maximal effect.

| SMILES | activity change, negative = inhibition | Potency |
| --- | --- | --- |
| CS(=O)(=O)NCCSc1nnnn1-c1ccccc1 | inactive: 24% |  |
| Nc1cc(S(=O)(=O)Nc2ccc(Cl)cc2)ccc1N1CCOCC1 |  | active: 14.6 µM |
| COC(=O)C(NC(C)=O)(Nc1nc2ccc(S(C)(=O)=O)cc2s1)C(F)(F)F (stereo unspecified) |  | inconclusive: 32.6 µM [activator, single point] |
| CNc1ccc(Cl)nn1 | inactive: -11.1% |  |
| CCc1nc(NC(=O)NS(=O)(=O)c2ccccc2C(=O)OC)nc(OC)n1 | inactive: 0.189% |  |
| O=C(NC(=S)Nc1cccc2cccnc12)c1ccccc1 | inactive: 0% |  |
| O=C(/C=C/c1ccc(N2CCCCC2)c([N+](=O)[O-])c1)c1ccc(O)cc1 |  | inconclusive: 18.3 µM [activator, partial curve] |
| CN(C)C=NC(=O)c1cc(C(=O)c2ccc(Cl)cc2Cl)c[nH]1 |  | inconclusive: 10.3 µM [inhibitor, partial curve, poor fit] |
| COc1ccc(C(C)=O)cc1CSc1nnc(-c2ccncc2)o1 |  | inconclusive: 4.61 µM [inhibitor, partial curve, poor fit] |
| NC(=O)NOCc1cccc(Cl)c1 | inactive: 6.13% |  |
| O=C(NCc1ccccc1)C1=C[C@H](c2coc3ccccc3c2=O)C[C@H](OCc2ccc(CO)cc2)O1 |  | inconclusive: 32.6 µM [inhibitor, single point] |
| CCCC[C@@H]1C=C(C(=O)O)[C@H](c2ccc(Br)cc2)N1S(=O)(=O)c1ccc(C)cc1 | inactive: -2.35% |  |
| CCCCNC(=O)Cn1c(=O)c2c(ncn2CC)n(Cc2ccccc2)c1=O | inactive: 12.3% |  |
| CCOC(=O)[C@H]1[C@H]2COc3cc(OC)ccc3[C@@H]2N2C(=O)c3cc(F)c(F)cc3NC(=O)[C@@]12C |  | inconclusive: 22.4 µM [inhibitor, single point] |
| O=C(NCc1nc2ccccc2[nH]1)C1=C[C@@H](c2csc3ccccc23)C[C@@H](OCc2ccc(CO)cc2)O1 |  | inconclusive: 29.1 µM [inhibitor, single point] |
| CC(=O)C(=Nc1ccc(Cl)cc1Cl)NNc1cccc(Cl)c1 |  | inconclusive: 18.4 µM [inhibitor, partial curve, poor fit] |
| O=C(N/N=C/c1ccc2c(c1)OCO2)c1ccc2c(c1)OCCO2 |  | inconclusive: 6.51 µM [activator, full curve] |
| Cn1c(C2CCCN2C(=O)OC(C)(C)C)n[nH]c1=S (stereo unspecified) | inactive: 0% |  |
| CC1=NN(C(N)=S)C(=O)C1N=Nc1ccccc1O (stereo unspecified) | inactive: -4.66% |  |
| Cc1cccc(Nc2ncnc3ccc(Br)cc23)c1 |  | inconclusive: 16.4 µM [inhibitor, single point] |
| CCC(=O)Oc1oc(-c2ccccc2)nc1C=Nc1ccc(C)cc1 |  | inconclusive: 29.1 µM [activator, single point] |

2 records drawn at random from the list so far, as already listed:

| SMILES | activity change, negative = inhibition | Potency |
| --- | --- | --- |
| CCC(=O)Oc1oc(-c2ccccc2)nc1C=Nc1ccc(C)cc1 |  | inconclusive: 29.1 µM [activator, single point] |
| NC(=O)NOCc1cccc(Cl)c1 | inactive: 6.13% |  |
